According to paper PMC10753549 (ACS Omega, 2023):
Counter-ions that a name gives are not always drawn.

Test system: brine shrimp (Artemia salina)
Test: Brine shrimp lethality bioassay
Conditions: brine shrimp nauplii, 24 h, probit analysis of 6-point dose (16–500 μg/mL)

## CN1[C@@H]2CC[C@H]1C[C@@H](OC(=O)C(CO)c1ccccc1)C2 (stereo partly shown) [Atropine SO4, Atropine sulfate monohydrate]
  LD50 (median lethal dose): 737.8 µg/mL
